PubChem BioAssay AID1259425 | University of Nebraska Medical Center, 2018

Aim: 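Find knockdowns that reproduce the gene expression pattern seen when KSR1 is lost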 (primary screen)
Cell system: HCT116 human colon cancer cells
Knock-down reagent: siRNA pool against human genes, 50 nM siRNA
Read-out: 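mRNA of six signature genes measured together by branched-DNA assay after 50 nM siRNA pool, blank removed, divided by geometric mean of two housekeeping genes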
Scale: BNIP3L mRNA: higher = more BNIP3L transcript after knockdown; NDRG1 mRNA: higher = more NDRG1 transcript after knockdown; BNIP3 mRNA: higher = more BNIP3 transcript after knockdown; ALDOC mRNA: higher = more ALDOC transcript after knockdown; ACSL5 mRNA: higher = more ACSL5 transcript after knockdown
This is an unselected part of about 14,000 reagents. The numbers tell different reagents against one gene apart. Not stated in the record: the time to read-out.

| gene | reagent no. | BNIP3L mRNA, set 1 | NDRG1 mRNA, set 1 | BNIP3 mRNA, set 1 | ALDOC mRNA, set 1 | ACSL5 mRNA, set 1 |
| --- | --- | --- | --- | --- | --- | --- |
| G6PC2 (glucose-6-phosphatase catalytic subunit 2) | 1 | 0.0632 | 0.0766 | 0.258 | 0.023 | 0.149 |
| CIDEB (cell death inducing DFFA like effector b) | 1 | 0.0512 | 0.138 | 0.302 | 0.00786 | 0.252 |
| PRMT1 (protein arginine methyltransferase 1) | 1 | 0.0421 | 0.213 | 0.223 | 0.0231 | 0.258 |
| TPSAB1 (tryptase alpha/beta 1) | 1 | 0.185 | 0.249 | 0.523 | 0.0448 | 0.193 |
| TPSAB1 (tryptase alpha/beta 1) | 2 | 0.1 | 0.414 | 0.477 | 0.0345 | 0.126 |
| GALNT6 (polypeptide N-acetylgalactosaminyltransferase 6) | 1 | 0.112 | 0.148 | 0.262 | 0.0109 | 0.215 |
| EIF2B5 (eukaryotic translation initiation factor 2B subunit epsilon) | 1 | 0.0512 | 0.145 | 0.125 | -0.00258 | 0.281 |
| CBLB (Cbl proto-oncogene B) | 1 | 0.107 | 0.0922 | 0.34 | 0.0405 | 0.172 |
| APMAP (adipocyte plasma membrane associated protein) | 1 | 0.175 | 0.0634 | 0.224 | 0.024 | 0.277 |
| APC (APC regulator of Wnt signaling pathway) | 1 | 0.178 | 0.21 | 0.4 | 0.0221 | 0.512 |
| RPRD2 (regulation of nuclear pre-mRNA domain containing 2) | 1 | 0.197 | 0.27 | 0.609 | 0.0519 | 0.242 |
| TECPR1 (tectonin beta-propeller repeat containing 1) | 1 | 0.102 | 0.206 | 0.403 | 0.0335 | 0.421 |
| FHOD3 (formin homology 2 domain containing 3) | 1 | 0.174 | 0.105 | 0.296 | 0.0558 | 0.0898 |
| BMP1 (bone morphogenetic protein 1) | 1 | 0.088 | 0.166 | 0.268 | 0.0298 | 0.0844 |
| LYNX1 (Ly6/neurotoxin 1) | 1 | 0.159 | 0.619 | 0.335 | 0.0477 | 0.359 |
| CSE1L (chromosome segregation 1 like) | 1 | 0.0674 | 0.125 | 0.225 | 0.0391 | 0.239 |
| SNTA1 (syntrophin alpha 1) | 1 | 0.187 | 0.217 | 0.358 | 0.065 | 0.263 |
| DNAJC28 (DnaJ heat shock protein family (Hsp40) member C28) | 1 | 0.075 | 0.128 | 0.23 | 0.0172 | 0.179 |
| KLHL11 (kelch like family member 11) | 1 | 0.0834 | 0.328 | 0.313 | 0.029 | 0.229 |
| PDE4C (phosphodiesterase 4C) | 1 | 0.0798 | 0.322 | 0.311 | 0.0323 | 0.0915 |
| SLC67A1 | 1 | 0.0666 | 0.0706 | 0.364 | 0.000379 | 0.092 |
| SLX1B (structure-specific endonuclease subunit SLX1B) | 1 | 0.0933 | 0.159 | 0.325 | 0.0389 | 0.16 |
| LRRC8B (leucine rich repeat containing 8 VRAC subunit B) | 1 | 0.109 | 0.173 | 0.375 | 0.0355 | 0.0545 |
| SPRTN (SprT-like N-terminal domain) | 1 | 0.094 | 0.265 | 0.281 | 0.0421 | 0.216 |
| SETD7 (SET domain containing 7, histone lysine methyltransferase) | 1 | 0.0908 | 0.267 | 0.221 | 0.0544 | 0.213 |

Continued, starting with the last 5 of the part before.
| gene | reagent no. | BNIP3L mRNA, set 1 | NDRG1 mRNA, set 1 | BNIP3 mRNA, set 1 | ALDOC mRNA, set 1 | ACSL5 mRNA, set 1 |
| --- | --- | --- | --- | --- | --- | --- |
| SLC67A1 | 1 | 0.0666 | 0.0706 | 0.364 | 0.000379 | 0.092 |
| SLX1B (structure-specific endonuclease subunit SLX1B) | 1 | 0.0933 | 0.159 | 0.325 | 0.0389 | 0.16 |
| LRRC8B (leucine rich repeat containing 8 VRAC subunit B) | 1 | 0.109 | 0.173 | 0.375 | 0.0355 | 0.0545 |
| SPRTN (SprT-like N-terminal domain) | 1 | 0.094 | 0.265 | 0.281 | 0.0421 | 0.216 |
| SETD7 (SET domain containing 7, histone lysine methyltransferase) | 1 | 0.0908 | 0.267 | 0.221 | 0.0544 | 0.213 |
| CRYBG2 (crystallin beta-gamma domain containing 2) | 1 | 0.0784 | 0.091 | 0.245 | 0.0593 | 0.173 |
| RNASEH2C (ribonuclease H2 subunit C) | 1 | 0.308 | 0.183 | 0.242 | 0.0602 | 0.248 |
| PPCDC (phosphopantothenoylcysteine decarboxylase) | 1 | 0.0875 | 0.306 | 0.371 | 0.0574 | 0.0754 |
| HSF4 (heat shock transcription factor 4) | 1 | 0.107 | 0.257 | 0.313 | 0.00694 | 0.267 |
| UNC5C (unc-5 netrin receptor C) | 1 | 0.0687 | 0.349 | 0.234 | 0.0135 | 0.255 |
| SEMA3F (semaphorin 3F) | 1 | 0.0989 | 0.204 | 0.383 | 0.0298 | 0.107 |
| KCNH4 (potassium voltage-gated channel subfamily H member 4) | 1 | 0.0984 | 0.31 | 0.36 | 0.0442 | 0.126 |
| NOL10 (nucleolar protein 10) | 1 | 0.0615 | 0.258 | 0.215 | 0.039 | 0.255 |
| OR8B8 (olfactory receptor family 8 subfamily B member 8) | 1 | 0.308 | 0.478 | 0.459 | 0.0563 | 0.25 |
| MAP3K1 (mitogen-activated protein kinase kinase kinase 1) | 1 | 0.111 | 0.228 | 0.23 | 0.0111 | 0.218 |
| FCRL3 (Fc receptor like 3) | 1 | 0.0679 | 0.104 | 0.283 | 0.0309 | 0.0981 |
| RAB11A (RAB11A, member RAS oncogene family) | 1 | 0.0661 | 0.0949 | 0.122 | 0.0235 | 0.241 |
| MPPED1 (metallophosphoesterase domain containing 1) | 1 | 0.204 | 0.963 | 0.315 | 0.0199 | 0.213 |
| MRPL33 (mitochondrial ribosomal protein L33) | 1 | 0.0969 | 0.237 | 0.285 | 0.0215 | 0.124 |
| ZFYVE26 (zinc finger FYVE-type containing 26) | 1 | 0.175 | 0.798 | 0.355 | 0.0594 | 0.0936 |
| PRKAA1 (protein kinase AMP-activated catalytic subunit alpha 1) | 1 | 0.0916 | 0.15 | 0.315 | 0.00177 | 0.208 |
| SLC37A4 | 1 | 0.0801 | 0.13 | 0.227 | 0.0284 | 0.171 |
| DXO (decapping exoribonuclease) | 1 | 0.116 | 0.0497 | 0.268 | 0.00857 | 0.0627 |
| FBLN2 (fibulin 2) | 1 | 0.14 | 0.106 | 0.347 | 0.0554 | 0.045 |
| GCK (glucokinase) | 1 | 0.0802 | 0.0993 | 0.385 | 0.0221 | 0.174 |
| PGAM1 (phosphoglycerate mutase 1) | 1 | 0.115 | 0.173 | 0.33 | 0.0281 | 0.0709 |
| ZBTB32 (zinc finger and BTB domain containing 32) | 1 | 0.0971 | 0.109 | 0.253 | -0.0225 | 0.257 |
| RPL39 (ribosomal protein L39) | 1 | 0.14 | 0.634 | 0.289 | 0.0233 | 0.186 |
| MND1 (meiotic nuclear divisions 1) | 1 | 0.154 | 0.173 | 0.216 | 0.0448 | 0.273 |
| RHCG (Rh family C glycoprotein) | 1 | 0.117 | 0.26 | 0.358 | 0.0194 | 0.124 |
